From paper PMC8241732
No constants are given. Whether binding was seen depends on the method and setting. Binding seen in cells or lysates may run through a third protein. Some entries that bind do so weakly or less than the wild type.

By UniProt entry, the sequences of proteins in these tests, tags left out.
UniProt Q13485: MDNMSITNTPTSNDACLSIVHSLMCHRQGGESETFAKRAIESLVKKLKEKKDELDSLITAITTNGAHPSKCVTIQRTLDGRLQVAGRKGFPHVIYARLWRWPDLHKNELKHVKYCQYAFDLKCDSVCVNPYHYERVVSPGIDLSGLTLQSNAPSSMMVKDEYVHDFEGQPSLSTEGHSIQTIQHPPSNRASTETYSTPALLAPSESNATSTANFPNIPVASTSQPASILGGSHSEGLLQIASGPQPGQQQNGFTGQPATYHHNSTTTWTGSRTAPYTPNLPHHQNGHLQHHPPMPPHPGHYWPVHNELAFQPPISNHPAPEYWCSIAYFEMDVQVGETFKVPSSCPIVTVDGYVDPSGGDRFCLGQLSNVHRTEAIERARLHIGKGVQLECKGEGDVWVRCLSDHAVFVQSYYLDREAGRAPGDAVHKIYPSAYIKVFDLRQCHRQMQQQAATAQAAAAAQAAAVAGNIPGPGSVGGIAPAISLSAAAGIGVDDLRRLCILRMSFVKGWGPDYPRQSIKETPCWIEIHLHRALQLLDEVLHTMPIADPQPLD
UniProt Q13547: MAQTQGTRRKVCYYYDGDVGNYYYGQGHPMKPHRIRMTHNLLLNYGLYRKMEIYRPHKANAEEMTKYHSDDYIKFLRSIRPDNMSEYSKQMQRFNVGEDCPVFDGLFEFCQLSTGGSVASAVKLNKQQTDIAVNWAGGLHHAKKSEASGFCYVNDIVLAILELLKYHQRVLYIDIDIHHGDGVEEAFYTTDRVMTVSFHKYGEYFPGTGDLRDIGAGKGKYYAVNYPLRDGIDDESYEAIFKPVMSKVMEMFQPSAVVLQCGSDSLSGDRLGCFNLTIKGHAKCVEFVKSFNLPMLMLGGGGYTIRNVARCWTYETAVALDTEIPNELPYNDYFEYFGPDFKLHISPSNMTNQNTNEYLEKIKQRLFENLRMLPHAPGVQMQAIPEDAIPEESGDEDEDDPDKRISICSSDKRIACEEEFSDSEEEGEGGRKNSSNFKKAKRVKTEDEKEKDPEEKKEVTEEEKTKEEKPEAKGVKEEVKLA

Assays:
2×Flag-Smad4 = 2×Flag-Smad4 (UniProt Q13485); assay: co-IP; HNPC cells co-transfected with pCDNA3-2×Flag-Smad4 and pCDNA3-Myc-HDCA1 (and empty vectors), 48 h; IP with anti-Flag agarose and anti-Myc agarose; blots with anti-Flag and anti-Myc
[1] = biological target: Smad4 (human (endogenous in IVD tissue of a patient)) (UniProt Q13485); assay: co-IP; IP products of anti-Smad4 and IgG from degenerative IVD tissue (Pfirrmann grade IV) lysate; immunoblots for Smad4, pSmad1/5/8 and HDAC1

binding (2×Flag-Smad4) | binding [1] | Substance
binds | – | Myc-HDAC1 (from UniProt Q13547 1-482)
– | binds | HDAC1 (histone deacetylase 1) (from UniProt Q13547 1-482)
